Data on 26 compounds can be found in PubChem BioAssay AID192 (DTP/NCI, 2004).

The test system of this experiment is BDF1 mice, B16 melanoma ip, median survival T/C. Put plainly: NCI In Vivo Anticancer Drug Screen. Data for tumor model B16 Melanoma (intraperitoneal) in B6D2F1 (BDF1) mice. As to conditions: T/C endpoint: median survival time, higher T/C = longer survival. In outline: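 Antitumor activity is assessed in mice bearing a transplanted tumor, with survival or tumor size compared against vehicle-dosed controls and expressed as T/C.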

Setting [1] is: dose: 100.0 mg/kg/injection, schedule: Q01DX009 (ip), vehicle: saline.
Setting [2] is: dose: 200.0 mg/kg/injection, schedule: Q01DX009 (ip), vehicle: saline.
Where [3] appears, read: dose: 400.0 mg/kg/injection, schedule: Q01DX009 (ip), vehicle: saline.
Setting [4] is: dose: 25.0 mg/kg/injection, schedule: Q01DX009 (ip), vehicle: saline with Tween-80.
The mark [5] stands for this setting: dose: 100.0 mg/kg/injection, schedule: Q01DX009 (ip), vehicle: saline with Tween-80.
[6] abbreviates: dose: 200.0 mg/kg/injection, schedule: Q01DX009 (ip), vehicle: saline with Tween-80.
Where [7] appears, read: dose: 400.0 mg/kg/injection, schedule: Q01DX009 (ip), vehicle: saline with Tween-80.
[8] abbreviates: dose: 4.0 mg/kg/injection, schedule: Q01DX009 (ip), vehicle: saline.
Where [9] appears, read: dose: 50.0 mg/kg/injection, schedule: Q01DX009 (ip), vehicle: saline.
Setting [10] is: dose: 100.0 mg/kg/injection, schedule: Q01DX009 (ip), vehicle: Klucel (hydroxypropylcellulose) (HPC).
Where [11] appears, read: dose: 200.0 mg/kg/injection, schedule: Q01DX009 (ip), vehicle: Klucel (hydroxypropylcellulose) (HPC).
[12] abbreviates: dose: 400.0 mg/kg/injection, schedule: Q01DX009 (ip), vehicle: Klucel (hydroxypropylcellulose) (HPC).

The list shows only some results of the screen, not a fair sample: it is rich in T/C values a quarter to a half above the control, in often repeated tests (any T/C) and in doses without a T/C. Other doses and runs of a compound stand elsewhere. T/C: endpoint of the treated group in % of that of the vehicle group. Some doses have a count of surviving animals in place of a T/C: the source files T/C as zero there, which appears to mark a toxic dose or a test without result, not a measured value. Some survivor counts are full or nearly so, which does not show that the dose was tolerated: survival well below the control is almost never listed, so the zero probably covers shortened survival too. Survivors were counted at the toxicity check, usually on the fifth day, unless a day is given; later deaths do not show. Schedule codes are those of the source, taken here to give the interval after Q, in days (D) or hours (H), and the number of doses after X. Counts like (3×) count equal records among those shown. Some doses were run more than once; their values stand side by side, smallest first. Where survival is the endpoint, the PubChem record calls one and a half times the control and up active, and a quarter to a half above the control has no call in these data; cut-offs in other NCI protocols can differ.

Take `CCOC(=O)C(Cc1ccc(O)cc1)NP(=O)(OCCCl)OCCCl` (centres undefined): the survivor count (dose: 100.0 mg/kg/injection, schedule: Q04DX003 (ip), vehicle: Klucel (hydroxypropylcellulose) (HPC)) was 10 of 10.

For `O=C(CCCN1CCC2(CC1)C(=O)NCN2c1ccccc1)c1ccc(F)cc1`, the survivor count by setting is: (dose: 0.19 mg/kg/injection, schedule: Q01DX009 (ip), vehicle: saline) 9 of 10; (dose: 3.12 mg/kg/injection, schedule: Q01DX009 (ip), vehicle: saline) 3 of 10.

Regarding `COC1=C(C)C(=O)C2=C(C1=O)C(CO)N1C(C#N)C3CC4C(C1C2N1CCOC41)N3C` (centres undefined), where the note is “dose: 2.0 mg/kg/injection, schedule: Q01DX009 (ip), vehicle: saline + alcohol”, the survivor count is 6 of 10.

`COC(=O)C1=CCCN(C)C1`: the survivor count was 3 of 10 under setting [1], 0 of 10 under setting [2] and 0 of 10 under setting [3].

Turning to `Cc1ccc(C(=N)c2ccccc2Cc2cccc3ccccc23)c(C)c1`, the survivor count reads like this: (dose: 6.25 mg/kg/injection, schedule: Q01DX009 (ip), vehicle: saline with Tween-80) 10 of 10; (dose: 12.5 mg/kg/injection, schedule: Q01DX009 (ip), vehicle: saline with Tween-80) 10 of 10; under setting [4], 10 of 10; (dose: 50.0 mg/kg/injection, schedule: Q01DX009 (ip), vehicle: saline with Tween-80) 10 of 10; under setting [5], 10 of 10; under setting [6], 10 of 10. The survivor count under setting [7] is recorded as 9 of 10.

Turning to `CCCCCCCCCCCC[N+](C)(C)CCCCCCCCCCCC`, the survivor count is, setting by setting: under setting [8], 10 of 10; (dose: 16.0 mg/kg/injection, schedule: Q01DX009 (ip), vehicle: saline) 9 of 10.

`CCCCCCCC(=O)N/N=C(\CO)[C@]1(O)Cc2c(O)c3c(c(O)c2[C@@H](OC2CC(N)C(O)C(C)O2)C1)C(=O)c1c(OC)cccc1C3=O` (some centres undefined): the survivor count (dose: 100.0 mg/kg/injection, schedule: Q01DX001 (ip), vehicle: water) is 9 of 10 and 10 of 10; the survivor count (dose: 200.0 mg/kg/injection, schedule: Q01DX001 (ip), vehicle: water) is 9 of 10.

For `C[N+](C)(C)CCCC1C2CCC(C2)C1C[N+](C)(C)C` (centres undefined), the survivor count under setting [9] was 0 of 10.

As to `CCCCC(CC)C1OC(=O)C(C)O1` (centres undefined), the survivor count (dose: 400.0 mg/kg/injection, schedule: Q04DX003 (ip), vehicle: Klucel (hydroxypropylcellulose) (HPC)) is recorded as 10 of 10.

As for `Nc1nc(=O)n(C2OC(CO)C(O)C2O)cc1F` (centres undefined), the survivor count reads like this: (dose: 12.5 mg/kg/injection, schedule: Q01DX009 (ip), vehicle: saline) 10 of 10; under setting [9], 10 of 10; under setting [1], 10 of 10; under setting [2], 10 of 10; under setting [3], 10 of 10. For the same compound, the T/C (dose: 36.0 mg/kg/injection, schedule: Q01DX009 (ip), vehicle: saline) was 128 and 135 % of control; the T/C under setting [9] is 141 % of control; the T/C under setting [1] is 129 % of control.

For `C=C1C(=O)OC2C1CCC(=C)C1CC(O)C(=C)C12` (centres undefined), the survivor count is 10 of 10 (dose: 150.0 mg/kg/injection, schedule: Q01DX009 (ip), vehicle: saline with Tween-80) and 4 of 10 (dose: 225.0 mg/kg/injection, schedule: Q01DX009 (ip), vehicle: saline with Tween-80).

With `CC(=O)Nc1ccc(NC(=O)c2ccc([As](O)O)cc2)cc1`, the T/C runs as follows: (dose: 50.0 mg/kg/injection, schedule: Q01DX009 (ip), vehicle: Klucel (hydroxypropylcellulose) (HPC)) 149 % of control; under setting [10], 145 % of control; under setting [11], 139 % of control.

On to `CNC(=O)Nc1ccc(Cl)cc1C`, for which the survivor count runs as follows: under setting [11], 10 of 10; under setting [12], 5 of 10.

Turning to `CC1=C2CC(C)(C)/C=C\C(=O)/C(C)=C\C3=C[C@H](C)C[C@]3(O2)C1=O`, the survivor count is, setting by setting: (dose: 4.0 mg/kg/injection, schedule: Q01DX009 (ip), vehicle: saline with Tween-80) 6 of 6; (dose: 8.0 mg/kg/injection, schedule: Q01DX009 (ip), vehicle: saline with Tween-80) 5 of 6; (dose: 24.0 mg/kg/injection, schedule: Q01DX009 (ip), vehicle: saline) 10 of 10; (dose: 48.0 mg/kg/injection, schedule: Q01DX009 (ip), vehicle: saline) 9 of 10.

In the case of `CCOc1nsc(OCC)n1`, the survivor count is, setting by setting: (dose: 200.0 mg/kg/injection, schedule: Q04DX003 (ip), vehicle: distilled water + Tween-80) 9 of 10; (dose: 400.0 mg/kg/injection, schedule: Q04DX003 (ip), vehicle: distilled water + Tween-80) 8 of 10.

`COc1ccccc1NC(=O)Nc1ccc(C(C)C)cc1`: the survivor count is on record as 5 of 6 under setting [10], 6 of 6 under setting [11] and 6 of 6 under setting [12].

Consider `COc1cc(C=Nc2ccc(-n3ccnc3C)cc2)ccc1N(CCCl)CCCl`, for which the T/C was 131 % of control (dose: 5.0 mg/kg/injection, schedule: Q01DX009 (ip), vehicle: Klucel (hydroxypropylcellulose) (HPC)) and 132 % of control (dose: 10.0 mg/kg/injection, schedule: Q01DX009 (ip), vehicle: Klucel (hydroxypropylcellulose) (HPC)). The survivor count (dose: 20.0 mg/kg/injection, schedule: Q01DX009 (ip), vehicle: Klucel (hydroxypropylcellulose) (HPC)) is given as 10 of 10.

Take `O=C1CCC(c2ccccc2)=NN1`: the survivor count reads like this: under setting [5], 10 of 10; under setting [6], 8 of 10; under setting [7], 7 of 10.

Take `CC1CN1CC(O)C(O)CN1CC1C` (centres undefined): the T/C is 127 and 128 % of control (dose: 1.0 mg/kg/injection, schedule: Q01DX009 (ip), vehicle: saline); 130 % of control (dose: 1.2 mg/kg/injection, schedule: Q01DX009 (ip), vehicle: saline); 143 % of control (dose: 1.25 mg/kg/injection, schedule: Q01DX009 (ip), vehicle: saline); 135 % of control (dose: 1.8 mg/kg/injection, schedule: Q01DX009 (ip), vehicle: saline). The survivor count by setting is: (dose: 2.5 mg/kg/injection, schedule: Q01DX009 (ip), vehicle: saline) 9 of 10; under setting [8], 10 of 10 (2×); (dose: 5.0 mg/kg/injection, schedule: Q01DX009 (ip), vehicle: saline) 10 of 10; (dose: 8.0 mg/kg/injection, schedule: Q01DX009 (ip), vehicle: saline) 10 of 10.

Take `CN1CCC(=C2c3ccccc3C(O)c3ccccc32)CC1` (centres undefined): the survivor count is, setting by setting: under setting [10], 0 of 10; under setting [11], 0 of 10; under setting [12], 0 of 10.

Regarding `Nc1ccccc1SC1CC(=O)N(c2ccccc2Cl)C1=O` (centres undefined), the survivor count under setting [12] was 8 of 10.

On to `O=C(Nc1ccc(C(=O)O)cc1)Nc1nccs1`, for which the T/C (dose: 50.0 mg/kg/injection, schedule: Q01DX009 (ip), vehicle: distilled water + Tween-80) was 125 % of control. Further, under “dose: 400.0 mg/kg/injection, schedule: Q01DX009 (ip), vehicle: distilled water + Tween-80”, the survivor count is 8 of 10.

Consider `CCCCCCC(=O)C(CCCC)(C(=O)OCC)C(=O)OCC`, for which the survivor count under setting [11] is 10 of 10 and the survivor count under setting [12] is listed as 10 of 10.

As for `C[N+](C)(CCO)Cc1ccccc1`, the survivor count under setting [4] is 10 of 10.

With `C=C(OC1C(C)=C2C(C1OC(=O)CCCCCCC)C(C)(OC(C)=O)CC(OC(=O)CCC)C1(O)C2OC(=O)C1(C)O)/C(C)=C/C` (centres undefined), the survivor count (dose: 0.75 mg/kg/injection, schedule: Q01DX009 (ip), vehicle: Klucel (hydroxypropylcellulose) (HPC)) is on record as 9 of 10.

Turning to `Clc1ccc(/C=N\N=C\c2ccc(Cl)c(Cl)c2)cc1Cl`, the survivor count under setting [12] is recorded as 7 of 10.
